Data as given in PubChem BioAssay AID1671195 (Yale University, 2021)
The deposit covers about 22,000 reagents; this is an unselected part. About 1,510 of all reagents (6.9%) count as active. 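Active includes knockdowns raising or lowering LDL uptake; positive z-scores mean more uptake, negative mean less.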 Entries without a mark were called inactive. Reagent sequences are not shown.

Aim: 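Knockdowns that increase or decrease uptake of fluorescent LDL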 (primary screen)
Cells: human Huh7 hepatoma cells
Knock-down reagent: siRNA pool against human genes, 18 nM
Time to read-out: about 2 to 2.5 days of knockdown, then 8 h LDL uptake
Conditions: DiI-labelled LDL at 30 µg/ml for 8 h, in lipoprotein-deficient serum medium
Measurement: 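Fluorescent LDL signal imaged in cells, scaled to the plate median, robust z-score for each replicate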
Scale: robust z-score: higher = more LDL uptake after knockdown
Active means: 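a gene counts as active if at least two replicate z-scores exceed ±2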

Silencing of REC114 (GeneID 283677) resulted in: robust z-score, replicate 1 = 0.0764; robust z-score, replicate 2 = 0.0967; robust z-score, replicate 3 = 0.0729. TAAR6 (GeneID 319100) scored robust z-score, replicate 1 = -0.23; robust z-score, replicate 2 = -1.02; robust z-score, replicate 3 = 0.318. LRWD1 (GeneID 222229) scored robust z-score, replicate 1 = 0.551; robust z-score, replicate 2 = 0.385; robust z-score, replicate 3 = 1.01. Silencing of RPL7P47 (GeneID 146110) resulted in: robust z-score, replicate 1 = 0.768; robust z-score, replicate 2 = 0.697; robust z-score, replicate 3 = 0.217. Against SDR16C6P (GeneID 442388), the entry reads robust z-score, replicate 1 = 1.24; robust z-score, replicate 2 = 1.98; robust z-score, replicate 3 = 1.89. After knock-down of NUP153 (GeneID 9972) the results were robust z-score, replicate 1 = 1.71; robust z-score, replicate 2 = 2.05; robust z-score, replicate 3 = 1.29.

Against EPHA3 (GeneID 2042) the deposit lists robust z-score, replicate 1 = -0.279; robust z-score, replicate 2 = -0.583; robust z-score, replicate 3 = -0.997. Against RBM18 (GeneID 92400), the entry reads robust z-score, replicate 1 = 0.795; robust z-score, replicate 2 = -0.909; robust z-score, replicate 3 = 0.0714. For LOXL2 (GeneID 4017), the entry reads robust z-score, replicate 1 = -2.17 (active); robust z-score, replicate 2 = -2.18; robust z-score, replicate 3 = -2.1. Against GRK5 (GeneID 2869) the deposit lists robust z-score, replicate 1 = -0.544; robust z-score, replicate 2 = -1.4; robust z-score, replicate 3 = -1.36. With knock-down of GSTK1 (GeneID 373156), the screen gave robust z-score, replicate 1 = -2.46 (active); robust z-score, replicate 2 = -2.65; robust z-score, replicate 3 = 0.637. After knock-down of RAMAC (GeneID 83640) the results were robust z-score, replicate 1 = 0.665; robust z-score, replicate 2 = 0.808; robust z-score, replicate 3 = 0.226.

With knock-down of ZNF675 (GeneID 171392) the results were robust z-score, replicate 1 = -0.0638; robust z-score, replicate 2 = -0.0229; robust z-score, replicate 3 = 0.458. Depletion of OR2H1 (GeneID 26716) gave: robust z-score, replicate 1 = 0.141; robust z-score, replicate 2 = -0.22; robust z-score, replicate 3 = -2.02. Silencing of IQCB1 (GeneID 9657) came out at: robust z-score, replicate 1 = 1.87; robust z-score, replicate 2 = 0.386; robust z-score, replicate 3 = -0.216.

Laid out differently: entries from further up.
{"gene":"GRK5 (GeneID 2869)","robust z-score, replicate 1":-0.544,"robust z-score, replicate 2":-1.4,"robust z-score, replicate 3":-1.36}
{"gene":"GSTK1 (GeneID 373156)","robust z-score, replicate 1":"-2.46 (active)","robust z-score, replicate 2":-2.65,"robust z-score, replicate 3":0.637}

Continued.
Against RGMB (GeneID 285704), the values are robust z-score, replicate 1 = -0.497; robust z-score, replicate 2 = -0.412; robust z-score, replicate 3 = -0.051. Knock-down of LOC392467 (retired record) (GeneID 392467) came out at: robust z-score, replicate 1 = 0.991; robust z-score, replicate 2 = 1.84; robust z-score, replicate 3 = 2.42. STAB1 (GeneID 23166) gave robust z-score, replicate 1 = 0.316; robust z-score, replicate 2 = -0.321; robust z-score, replicate 3 = -0.164. For CDK2AP1 (GeneID 8099), the values are robust z-score, replicate 1 = 0.509; robust z-score, replicate 2 = -1.46; robust z-score, replicate 3 = 0.112. For SLC26A9 (GeneID 115019), the entry reads robust z-score, replicate 1 = -0.726; robust z-score, replicate 2 = -0.758; robust z-score, replicate 3 = -0.994. MORF4L2 (GeneID 9643) showed robust z-score, replicate 1 = -0.757; robust z-score, replicate 2 = -0.489; robust z-score, replicate 3 = 1.65.

With knock-down of NDNF (GeneID 79625), the screen gave robust z-score, replicate 1 = 0.941; robust z-score, replicate 2 = 1.08; robust z-score, replicate 3 = 0.193. TTC27 (GeneID 55622) scored robust z-score, replicate 1 = 4.53 (active); robust z-score, replicate 2 = 2.83; robust z-score, replicate 3 = 4.52. Silencing of SIPA1L2 (GeneID 57568) resulted in: robust z-score, replicate 1 = -0.673; robust z-score, replicate 2 = -0.0164; robust z-score, replicate 3 = -0.388.
